Experimental data taken from paper PMC12217004, “Evolutionary regulation of human Fas ligand (CD95L) by plasmin in solid cancer immunotherapy” (Nature Communications, 2025).
These are yes or no findings as the source states them, for the method shown. Some binding calls cover weakened binding; strength is not graded here. Where a sequence is shown, tags or fusion partners need not be part of it.

Biological target: T1, human Fas ligand extracellular domain, shorter form, His-tagged (HuFasL^S, 134-281) (human), P48023
T1 chain: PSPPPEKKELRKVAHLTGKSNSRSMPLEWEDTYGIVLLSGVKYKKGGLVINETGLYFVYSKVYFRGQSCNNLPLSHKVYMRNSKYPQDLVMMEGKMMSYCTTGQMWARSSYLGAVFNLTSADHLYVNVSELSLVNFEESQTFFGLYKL
Experiment: non-reducing gel with 60% lowered SDS, FasL immunoblot; his-tagged human and murine FasL forms added onto murine 4T1 cells (also human OVCAR3 cells) for 2 hr in serum-free media; supernatant precipitated and loaded without boiling on non-reducing gels; both purified
Conditions: remark: other sources report otherwise

B1: human Fas ligand extracellular domain, shorter form, His-tagged (HuFasL^S, 134-281), P48023 134-281 (domain or fragment)
chain: PSPPPEKKELRKVAHLTGKSNSRSMPLEWEDTYGIVLLSGVKYKKGGLVINETGLYFVYSKVYFRGQSCNNLPLSHKVYMRNSKYPQDLVMMEGKMMSYCTTGQMWARSSYLGAVFNLTSADHLYVNVSELSLVNFEESQTFFGLYKL
- binding: binds
